31 compounds from the supplement of paper PMC12889115 can be followed below.

This assay relates to Salmonella enterica serovar Typhimurium SL1344. The assay can be described thus: bacterial growth OD600 after 18 h with compound and polymyxin B; higher = more bacterial growth (less inhibition). As to conditions: 50 µM, Mueller-Hinton broth.

The list shows a part of the results. These are raw signals, not scaled to a control.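 First-pass screen: polymyxin B was added at a level that permeabilizes the Salmonella outer membrane while sparing the inner membrane. DMSO wells, with and without polymyxin B, defined maximum growth. Because plates differed from one another, each plate's data were ranked separately and the compounds with the lowest OD600 were carried forward as hits.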

On to `O=C1CCC(C(=O)NCc2cccnc2N2CCc3ccccc3C2)=NN1`, for which the “bacterial growth OD600” value (polymyxin B 0.75 µg/mL) was 0.74.

Regarding `O=C(NCc1nnc2n1CCC2)C1(N2CCCCC2)Cc2ccccc2C1`, the “bacterial growth OD600” value (polymyxin B 0.75 µg/mL) turned out to be 0.841.

In the case of `COc1ccc(-c2ccc(C(=O)N3CCC(CCC(=O)NC4CC4)CC3)o2)cc1`, where the note is “polymyxin B 1 µg/mL”, the “bacterial growth OD600” value is 0.953.

Turning to `Cc1nnc(CN(C)Cc2cn(Cc3ccccc3)nc2-c2cc3ccccc3o2)o1`, the “bacterial growth OD600” value (polymyxin B 1 µg/mL) is 0.831.

As for `CCO[C@H]1[C@H](NC(=O)c2cccnc2)c2ccccc2C12CCN(C(=O)c1ocnc1C)CC2`, under “polymyxin B 0.75 µg/mL”, the “bacterial growth OD600” value was 0.952.

As to `CCOC(=O)C1(Cc2ccc(OC)cc2)CCN(C(=O)c2ccccc2SC)CC1`, the “bacterial growth OD600” value (polymyxin B 1 µg/mL) worked out at 0.663.

Turning to `CCOc1cccc(CN2CCC3(CC2)c2ccccc2[C@@H](NC(=O)CSC)[C@@H]3OC)c1O`, the “bacterial growth OD600” value (polymyxin B 0.75 µg/mL) is 0.946.

With `COCCc1nc2ccc(C(=O)NCCc3cnn(-c4ccccc4)c3)cc2o1`, the “bacterial growth OD600” value (polymyxin B 1 µg/mL) was found to be 0.937.

As to `COc1cccc(OCc2cc(C(=O)N3CCCC(OC)C3)no2)c1` (stereo unspecified), the “bacterial growth OD600” value (polymyxin B 1 µg/mL) was 1.28.

For `COCCC(=O)NC1CC(=O)N(Cc2cccc(F)c2)C1` (stereo unspecified), the “bacterial growth OD600” value (polymyxin B 1 µg/mL) came to 0.9.

Consider `O=C(C1CCCN(Cc2nc(-c3cccc(Cl)c3)no2)C1)N1CCOCC1` (stereo unspecified), for which the “bacterial growth OD600” value (polymyxin B 1 µg/mL) is 0.741.

Consider `O=C(COc1ccccc1)N[C@@H]1c2ccccc2C2(CCN(Cc3cc(Cl)ccc3O)CC2)[C@H]1O`, for which, where the note is “polymyxin B 0.75 µg/mL”, the “bacterial growth OD600” value came to 0.792.

As to `Cc1ncc(CN(C)C2CCCN(CCc3ccccc3)C2)n1C` (stereo unspecified), the “bacterial growth OD600” value (polymyxin B 0.75 µg/mL) worked out at 0.779.

On to `O=C(c1ccc(N2CCC(NC(c3ccncc3)c3ccc(Cl)cc3)CC2)cc1)N1CCOCC1` (stereo unspecified), for which the “bacterial growth OD600” value (polymyxin B 0.75 µg/mL) turned out to be 0.894.

Consider `CN(Cc1ccccc1)C1(CNC(=O)c2ccc[n+]([O-])c2)Cc2ccccc2C1`, for which the “bacterial growth OD600” value (polymyxin B 1 µg/mL) is 0.947.

On to `COc1cc(=O)n2c(c1C(=O)NC(C)c1ccco1)CCN(Cc1cnn(C)c1C)CC2` (stereo unspecified), for which the “bacterial growth OD600” value (polymyxin B 0.75 µg/mL) worked out at 0.839.

Turning to `O=C(Cn1nnnc1CN1CCOCC1)N1CCN(Cc2cccc(F)c2)CC1`, the “bacterial growth OD600” value (polymyxin B 1 µg/mL) was determined as 0.635.

With `Cc1cccc(C(=O)N2CCC(C(Cc3ccccc3)N(C)C(=O)c3ccsc3)CC2)c1C` (stereo unspecified), the “bacterial growth OD600” value (polymyxin B 0.75 µg/mL) came out at 0.004.

As for `COCCC(=O)N1CCCC(N2CCN(c3cccc(C(F)(F)F)c3)CC2)C1` (stereo unspecified), for the setting “polymyxin B 1 µg/mL”, the “bacterial growth OD600” value was found to be 0.89.

With `COC(=O)C1CCCCN1C(=O)c1c(OC)cc(=O)n2c1CCN(C/C=C/c1ccco1)CC2` (stereo unspecified), the “bacterial growth OD600” value (polymyxin B 0.75 µg/mL) is 0.883.

For the compound `Cc1nnsc1C(=O)N1CCCC(CCc2ccccc2)C1` (stereo unspecified), where the note is “polymyxin B 0.75 µg/mL”, the “bacterial growth OD600” value came out at 0.565.

As for `CN(Cc1ccccc1Cl)C(=O)c1coc(COc2ccccc2)n1`, the “bacterial growth OD600” value (polymyxin B 0.75 µg/mL) is 0.202.

With `Cc1nn(C)cc1CNC(=O)c1cc(COc2ccc3c(c2)OCO3)[nH]n1`, the “bacterial growth OD600” value (polymyxin B 1 µg/mL) amounted to 0.868.

Take `COCCCN1C(=O)CC(CC(=O)N2CCC(c3ccccc3F)C2)(c2ccccc2OC)C1=O` (stereo unspecified): for the setting “polymyxin B 0.75 µg/mL”, the “bacterial growth OD600” value is 0.006.

For `Cc1cccc(CNC(=O)CC(c2cccc(O)c2)c2ccccc2Cl)n1` (stereo unspecified), the “bacterial growth OD600” value (polymyxin B 1 µg/mL) is 0.871.

As to `Cc1ccc2c(c1)CN(Cc1c(C)nc3sccn13)CC(c1ccsc1)O2` (stereo unspecified), under “polymyxin B 0.75 µg/mL”, the “bacterial growth OD600” value was determined as 0.099.

In the case of `CCOC(=O)CCNC(=O)N1C[C@H]2OC(=O)N(CCc3ccccn3)[C@H]2C1`, for the setting “polymyxin B 1 µg/mL”, the “bacterial growth OD600” value turned out to be 0.924.

`COc1cccc(C(=O)N2CCC(C(Cc3ccccc3)N(C)C(=O)c3cccs3)CC2)c1OC` (stereo unspecified): the “bacterial growth OD600” value (polymyxin B 0.75 µg/mL) was 0.698.

Turning to `CCO[C@H]1[C@H](NC(=O)c2ccco2)c2ccccc2C12CCN(Cc1c(C)nn(C(C)C)c1C)CC2`, the “bacterial growth OD600” value (polymyxin B 0.75 µg/mL) was determined as 0.826.

`Cc1nonc1C(=O)NC1CC(C)(C)Cc2nc(C(C)(C)C)ncc21` (stereo unspecified): the “bacterial growth OD600” value (polymyxin B 1 µg/mL) turned out to be 0.978.

With `Cc1cc(Cl)c2oc(C(=O)N3CCCCC3CCN3CCCC3=O)c(C)c2c1` (stereo unspecified), the “bacterial growth OD600” value (polymyxin B 1 µg/mL) came to 0.004.
